Binding data for one substance are collected here from publication PMC11055322.

Sequences of proteins named here, by UniProt entry; tags and fusion partners are left off. Residues count along the entry.
UniProt O95299, residues 36-355: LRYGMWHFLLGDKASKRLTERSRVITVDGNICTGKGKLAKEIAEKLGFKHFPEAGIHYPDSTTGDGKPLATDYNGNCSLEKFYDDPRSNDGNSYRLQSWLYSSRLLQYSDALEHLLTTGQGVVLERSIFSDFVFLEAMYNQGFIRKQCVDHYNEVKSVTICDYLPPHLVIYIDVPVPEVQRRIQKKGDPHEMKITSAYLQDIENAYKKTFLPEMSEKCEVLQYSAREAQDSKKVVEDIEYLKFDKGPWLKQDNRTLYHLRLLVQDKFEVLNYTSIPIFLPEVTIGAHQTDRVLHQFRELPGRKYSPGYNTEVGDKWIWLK

The target in this experiment is T1, caveolin 3 (CAV3) (human (endogenous in AC16)) (UniProt P56539).
T1 sequence: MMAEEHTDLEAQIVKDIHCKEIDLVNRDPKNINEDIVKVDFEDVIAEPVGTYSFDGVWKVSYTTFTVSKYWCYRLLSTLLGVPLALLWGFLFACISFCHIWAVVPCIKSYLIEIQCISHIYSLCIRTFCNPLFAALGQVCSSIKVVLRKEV
Description: affinity purification with mass spectrometry; IP with anti-CAV3 antibody and protein A/G agarose beads; Coomassie staining; beads with protein-antibody complexes sent for LC-MS/MS.

Results are given in words; binding and its absence hold for the method and conditions named. In cells and extracts the contact can be indirect. These calls come from enrichment with a bait or labelling near it, and not all partners need be listed.

As for “NDUFA10, a subunit of mitochondrial complex I (from UniProt O95299 36-355)”, the binding result is recorded as “binds”.
